Experimental data as given in patent US9901111B2, “Taste-improving peptide” (Takasago International Corporation, priority 2011, dated 2018).
Some entries share one result that the patent states for a list of compounds.

Test: Sensory evaluation of sourness-masking effect in yoghurt drink by five special panelists
Settings: Example 4; yoghurt drink stored at 10° C. for 10 days
Procedure: The peptide mixture obtained in the above procedure 1 was centrifuged (20,000 G) to obtain an aqueous layer. The aqueous layer was treated with UF membranes of 20 nm, 5 kDa and 1 kDa, respectively, and permeate solutions were collected. Each permeate solution obtained through the UF membranes or the peptide mixture before treatment were added to a commercially available yoghurt drink. After the yoghurt drink was stored at 10° C. for 10 days, five special panelists conducted sensory evaluation regarding a sourness-masking effect. Note that each sample was prepared such that the addition amount is 0.1% calculated in terms of the peptide mixture. A commercially available yoghurt drink without addition was used as control. Evaluation was performed by scoring from 0 to 3 shown in Table 1 at 0.5 point intervals.
In the same manner as in the above procedure 2, the obtained 13 fractions were added to a commercially available yoghurt drink, respectively. […] Each sample was prepared such that the addition amount is 0.1% calculated in terms of the peptide mixture. […]
In the same manner as in the above procedure 2, the obtained four fractions were added to a commercially available yoghurt drink, respectively. […] Each sample was prepared such that the addition amount is 0.1% calculated in terms of the peptide mixture. […]

Leu-Leu-Leu [LLL]
concentration giving a high sourness-masking effect: ≥ 0.01 ppm
